Experiment [1] concerns the target 人IL-5蛋白 (human interleukin-5) (human) (UniProt P05113). The experiment in a line: affinity measurement (method not told here).
The target is the same in experiment [2]. The experiment in a line: affinity measurement (sensorgram; Figure 6).

Chains of the proteins cited; added tags and fusions are not shown. Residues count along the entry.
UniProt P05113, residues 20-134: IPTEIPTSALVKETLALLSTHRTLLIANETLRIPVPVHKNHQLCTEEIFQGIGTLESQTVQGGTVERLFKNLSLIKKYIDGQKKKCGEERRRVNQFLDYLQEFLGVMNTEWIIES

No constants are given. Whether binding was seen depends on the method and setting. Some binding calls cover weakened binding; strength is not graded here.

B1: 人源化抗体30E6D5 (humanized 30E6D5) (antibody, human IgG1, kappa, V domains shown)
VH: EVQLQQSGAEVKKPGATVKISCKTSGFNIKDYFMHWVQQAPGKGLEWMGRIDPEDGETIYAEKFQGRVTITADTSTNTAYMELSSLRSEDTAVYYCVSYSTYPDYWGQGTTVTVSS
VL: EIVLTQSPDFQSVTPKEKVTITCSASSSVSYMYWYQQKPDSSPKLWIYLTSTLASGVPSRFSGSGSGTDYTLTINSLEAEDAATYYCQQWSSTPFTFGQGTKLEIKR
Consider B1, for which the binding entry in experiment [1] and in experiment [2] was “binds” in each case.

The record behind these values is patent publication CN112745389A.
